Reference: PubChem BioAssay AID686938 (Drosophila RNAi Screening Center, 2013)
Purpose: 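Knock-downs reducing store-operated calcium influx in Drosophila cells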 (primary screen). Cell system: Drosophila S2R+ cells. Reagents: long dsRNA against Drosophila genes, about 0.25 µg dsRNA per well, roughly 10,000 cells. Time to read-out: 5 days of knock-down before the calcium assay. Challenge: thapsigargin (SERCA pump blocker) to empty calcium stores; entry signal taken 4 min after adding it. Measured: 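Per-well fluo-4 fluorescence in two replicates, unnormalised, measured in resting cells and 4 min after store depletion by the SERCA blocker thapsigargin; ratio of the two present in few wells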. Scale: calcium entry signal: higher = stronger calcium signal after store depletion; resting calcium signal: higher = higher resting calcium signal. Call rule: 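Called when the plate z-score of the entry-to-rest ratio, mean of duplicates, falls below −3; wells with low overall dye signal (Fmax z below −2) or more than five off-targets excluded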. Meaning of the calls: active = strongly reduced calcium entry; inactive = no strong reduction.
In all, the deposit lists about 23,000 reagents; this is an unselected part of those with a known target gene and a result. In the full data, 75 (0.33%) were called active. 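Raw plate signals without normalisation; calls rest on plate z-scores that were not deposited; ratio present for only 364 wells.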 The numbers tell different reagents against one gene apart. A plus sign joins genes that one reagent is predicted to hit. Not given: the dose of the treatment.

Target gene	dsRNA no.	calcium entry signal, replicate 1 (fluorescence units)	calcium entry signal, replicate 2 (fluorescence units)	resting calcium signal, replicate 1 (fluorescence units)	resting calcium signal, replicate 2 (fluorescence units)	call
Sp1	1	3.82e7	3.90e7	1.82e7	1.72e7	inactive
Sp1	2	3.86e7	4.82e7	1.94e7	2.23e7	inactive
betaTub97EF	1	2.25e7	3.69e7	1.50e7	1.76e7	inactive
betaTub97EF	2	3.17e7	4.89e7	1.66e7	2.05e7	inactive
betaTub97EF	3	3.27e7	5.24e7	1.75e7	2.11e7	inactive
CG2889	1	3.38e7	4.20e7	1.75e7	2.14e7	inactive
CG15927	1	4.34e7	3.96e7	1.90e7	2.07e7	inactive
CG11630	1	3.66e7	4.52e7	1.90e7	2.04e7	inactive
CG34292	1	3.18e7	2.28e7	1.61e7	1.26e7	inactive
whe	1	4.29e7	3.95e7	2.08e7	1.73e7	inactive
TTLL12	1	2.70e7	2.99e7	1.22e7	1.35e7	inactive
CG4476	1	3.26e7	3.57e7	1.76e7	1.57e7	inactive
CG5112	1	4.04e7	5.27e7	1.72e7	2.14e7	inactive
CG13088	1	4.50e7	6.13e7	2.21e7	2.54e7	inactive
CG32085	1	1.93e7	2.23e7	1.12e7	1.10e7	inactive
CG32085	2	2.28e7	2.15e7	1.22e7	1.09e7	inactive
CG32085	3	1.83e7	1.88e7	1.11e7	1.03e7	inactive
rtp	1	2.36e7	3.09e7	9.71e6	1.37e7	inactive
Ebp	1	3.42e7		1.63e7		inactive
CG45263	1	2.65e7	4.46e7	1.34e7	2.43e7	inactive
CG45263	2	5.07e7	3.41e7	2.62e7	1.85e7	inactive
CG45263	3	4.12e7	2.62e7	1.99e7	1.44e7	inactive
CG45263	4	3.23e7	2.67e7	1.54e7	1.43e7	inactive
CG45263	5	3.62e7	2.98e7	1.58e7	1.38e7	inactive
prt	1	4.71e7	4.87e7	2.13e7	2.15e7	inactive
Jon44E	1	4.78e7	4.81e7	2.30e7	2.08e7	inactive
CG8180	1	2.88e7	2.87e7	1.33e7	1.41e7	inactive
CG8180	2	3.74e7	3.06e7	1.81e7	1.40e7	inactive
Madm	1	5.32e7	3.50e7	2.62e7	1.83e7	inactive
CG32249	1	5.25e7	3.35e7	2.79e7	1.58e7	inactive
CG32249	2	2.32e7	4.13e7	1.22e7	1.74e7	inactive
CG32249	3	4.58e7	3.78e7	2.16e7	1.72e7	inactive
sxc	1	3.58e7	4.42e7	1.94e7	2.07e7	inactive
APP-BP1	1	2.84e7	3.36e7	1.50e7	1.67e7	inactive
Cyp28c1	1	3.14e7	3.58e7	1.54e7	1.83e7	inactive
T3dh + pgc	1	2.99e7		1.44e7		inactive
Teh1	1	4.35e7	4.02e7	2.21e7	2.17e7	inactive
CG14229	1	4.39e7	4.24e7	2.09e7	1.66e7	inactive
CG14229	2	3.70e7	2.76e7	2.15e7	1.22e7	inactive
Iru	1	3.58e7	3.64e7	1.59e7	1.72e7	inactive
Cpr67B	1	4.31e7	3.91e7	3.04e7	1.62e7	inactive
mRNA-cap	1	1.94e7	1.82e7	1.34e7	1.13e7	inactive
CG15247	1	2.97e7	5.46e7	1.52e7	2.63e7	inactive
Nph	1	4.30e7	5.69e7	2.22e7	2.60e7	inactive
nst	1	4.19e7	4.13e7	2.67e7	1.67e7	inactive
Drs	1	2.82e7	3.82e7	1.50e7	1.82e7	inactive
CG5062	1	3.54e7	3.10e7	1.79e7	1.58e7	inactive
CG4709	1	5.18e7		2.62e7		inactive
CG32152	1	3.44e7	3.07e7	1.88e7	1.37e7	inactive
CG8219	1	2.72e7	4.60e7	1.39e7	2.14e7	inactive
CG2955	1	4.93e7		3.25e7		inactive
CG42808	1	3.01e7	2.93e7	1.40e7	1.33e7	inactive
wge	1	5.44e7	4.66e7	2.61e7	2.25e7	inactive
wge	2	5.27e7	5.77e7	2.28e7	2.32e7	inactive
emp	1	2.38e7	3.38e7	1.23e7	1.41e7	inactive
emp	2	3.16e7		1.63e7		inactive
VhaAC39-2	1	4.59e7	6.66e7	2.37e7	2.73e7	inactive
CG14132	1	2.53e7	2.90e6	1.31e7	3.37e6	inactive
